# Screening data

Data taken from PubChem BioAssay AID504749, deposited by NCATS (2011).

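Malaria parasite (P. falciparum) lines kept in red blood cells; parasite DNA is measured by SYBR Green fluorescence after lysis, 72 h after compound addition.
Each compound was titrated across a series from about 0.000037 to 29 µM.
The number is the fitted AC50, the concentration giving a half-maximal change in signal; a lower value means higher potency, whether the curve shows a decrease or an increase.
Calls follow the curve class and fit quality: every row here is inconclusive, covering signal-raising curves and weak, poorly fitted, partial or highest-dose-only inhibition curves.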

Values are in nM.
All entries here are filed as inconclusive.
Only part of the assay is shown, chiefly results filed as inconclusive.
Some entries filed as inconclusive have a full curve.

Compound	condition	potency (nM)	curve as filed
CCC[C@H]1C[C@H](C(=O)N[C@@H]([C@H]2O[C@@H](SC)[C@@H](O)[C@@H](O)[C@@H]2O)[C@H](C)Cl)N(C)C1	AA1029	31.6	inhibitor, full curve
CCC[C@H]1C[C@H](C(=O)N[C@@H]([C@H]2O[C@@H](SC)[C@@H](O)[C@@H](O)[C@@H]2O)[C@H](C)Cl)N(C)C1	CP194	84.9	inhibitor, full curve
CCC[C@H]1C[C@H](C(=O)N[C@@H]([C@H]2O[C@@H](SC)[C@@H](O)[C@@H](O)[C@@H]2O)[C@H](C)Cl)N(C)C1	CP265	177.8	inhibitor, full curve
CCC[C@H]1C[C@H](C(=O)N[C@@H]([C@H]2O[C@@H](SC)[C@@H](O)[C@@H](O)[C@@H]2O)[C@H](C)Cl)N(C)C1	SC27B	158.5	inhibitor, full curve
CCC[C@H]1C[C@H](C(=O)N[C@@H]([C@H]2O[C@@H](SC)[C@@H](O)[C@@H](O)[C@@H]2O)[C@H](C)Cl)N(C)C1	7G8	125.9	inhibitor, full curve
CCC[C@H]1C[C@H](C(=O)N[C@@H]([C@H]2O[C@@H](SC)[C@@H](O)[C@@H](O)[C@@H]2O)[C@H](C)Cl)N(C)C1	TAB113	70.8	inhibitor, full curve
CCC[C@H]1C[C@H](C(=O)N[C@@H]([C@H]2O[C@@H](SC)[C@@H](O)[C@@H](O)[C@@H]2O)[C@H](C)Cl)N(C)C1	TAB165	177.8	inhibitor, full curve
CCC[C@H]1C[C@H](C(=O)N[C@@H]([C@H]2O[C@@H](SC)[C@@H](O)[C@@H](O)[C@@H]2O)[C@H](C)Cl)N(C)C1	CP268	42.6	inhibitor, full curve
CCC[C@H]1C[C@H](C(=O)N[C@@H]([C@H]2O[C@@H](SC)[C@@H](O)[C@@H](O)[C@@H]2O)[C@H](C)Cl)N(C)C1	CP252	50.1	inhibitor, full curve
CCC[C@H]1C[C@H](C(=O)N[C@@H]([C@H]2O[C@@H](SC)[C@@H](O)[C@@H](O)[C@@H]2O)[C@H](C)Cl)N(C)C1	DIV17	301.3	inhibitor, full curve
CCC[C@H]1C[C@H](C(=O)N[C@@H]([C@H]2O[C@@H](SC)[C@@H](O)[C@@H](O)[C@@H]2O)[C@H](C)Cl)N(C)C1	CP217	125.9	inhibitor, full curve
CCC[C@H]1C[C@H](C(=O)N[C@@H]([C@H]2O[C@@H](SC)[C@@H](O)[C@@H](O)[C@@H]2O)[C@H](C)Cl)N(C)C1	PC26	190.1	inhibitor, full curve
CCC[C@H]1C[C@H](C(=O)N[C@@H]([C@H]2O[C@@H](SC)[C@@H](O)[C@@H](O)[C@@H]2O)[C@H](C)Cl)N(C)C1	CP286	25.1	inhibitor, full curve
CCC[C@H]1C[C@H](C(=O)N[C@@H]([C@H]2O[C@@H](SC)[C@@H](O)[C@@H](O)[C@@H]2O)[C@H](C)Cl)N(C)C1	HB3	112.2	inhibitor, full curve
CCC[C@H]1C[C@H](C(=O)N[C@@H]([C@H]2O[C@@H](SC)[C@@H](O)[C@@H](O)[C@@H]2O)[C@H](C)Cl)N(C)C1	P94_40	56.2	inhibitor, full curve
CCC[C@H]1C[C@H](C(=O)N[C@@H]([C@H]2O[C@@H](SC)[C@@H](O)[C@@H](O)[C@@H]2O)[C@H](C)Cl)N(C)C1	DFO2036	56.2	inhibitor, full curve
CCC[C@H]1C[C@H](C(=O)N[C@@H]([C@H]2O[C@@H](SC)[C@@H](O)[C@@H](O)[C@@H]2O)[C@H](C)Cl)N(C)C1	CP269	37.9	inhibitor, full curve
CCC[C@H]1C[C@H](C(=O)N[C@@H]([C@H]2O[C@@H](SC)[C@@H](O)[C@@H](O)[C@@H]2O)[C@H](C)Cl)N(C)C1	CP247	35.5	inhibitor, full curve
CCC[C@H]1C[C@H](C(=O)N[C@@H]([C@H]2O[C@@H](SC)[C@@H](O)[C@@H](O)[C@@H]2O)[C@H](C)Cl)N(C)C1	CP211	53.6	inhibitor, full curve
CCC[C@H]1C[C@H](C(=O)N[C@@H]([C@H]2O[C@@H](SC)[C@@H](O)[C@@H](O)[C@@H]2O)[C@H](C)Cl)N(C)C1	ECU	199.5	inhibitor, full curve
CCC[C@H]1C[C@H](C(=O)N[C@@H]([C@H]2O[C@@H](SC)[C@@H](O)[C@@H](O)[C@@H]2O)[C@H](C)Cl)N(C)C1	ATS95	100	inhibitor, full curve
CCC[C@H]1C[C@H](C(=O)N[C@@H]([C@H]2O[C@@H](SC)[C@@H](O)[C@@H](O)[C@@H]2O)[C@H](C)Cl)N(C)C1	AS120	50.1	inhibitor, full curve
CCC[C@H]1C[C@H](C(=O)N[C@@H]([C@H]2O[C@@H](SC)[C@@H](O)[C@@H](O)[C@@H]2O)[C@H](C)Cl)N(C)C1	DIV30	67.5	inhibitor, full curve
CCC[C@H]1C[C@H](C(=O)N[C@@H]([C@H]2O[C@@H](SC)[C@@H](O)[C@@H](O)[C@@H]2O)[C@H](C)Cl)N(C)C1	PAD	251.2	inhibitor, full curve
CCC[C@H]1C[C@H](C(=O)N[C@@H]([C@H]2O[C@@H](SC)[C@@H](O)[C@@H](O)[C@@H]2O)[C@H](C)Cl)N(C)C1	CP305	42.6	inhibitor, full curve

Some entries from above, unchanged:

Compound	condition	potency (nM)	curve as filed
CCC[C@H]1C[C@H](C(=O)N[C@@H]([C@H]2O[C@@H](SC)[C@@H](O)[C@@H](O)[C@@H]2O)[C@H](C)Cl)N(C)C1	AS120	50.1	inhibitor, full curve
CCC[C@H]1C[C@H](C(=O)N[C@@H]([C@H]2O[C@@H](SC)[C@@H](O)[C@@H](O)[C@@H]2O)[C@H](C)Cl)N(C)C1	PAD	251.2	inhibitor, full curve